Measurements as given in patent US12486218B2, “Compounds advantageous in the treatment of central nervous system diseases and disorders” (AurimMed Pharma, Inc., priority 2008, dated 2025).
For at least one compound, name, drawing or mass did not settle the structure.

System: inclusion of exon 7 in SMN2 mRNAs
Experiment: Exon 7 inclusion BLA reporter assay in NSC34 cell line
Format: cell-based
Source text: To measure changes in the inclusion of exon 7 in SMN2 mRNAs, another NSC34 cell line was used that stably transfected with a reporter construct which expresses BLA when exon 7 is included in the SMN2 minigene mRNAs. 5-(N-ethyl-N-isopropyl)-amiloride (EIPA) was used as a positive control for this assay. Data for tis assay is illustrated in FIG. 30.

Compound: COc1ccc(C(C)CC(N)=O)cc1 (racemic) [BZ]
- Exon 7 inclusion (summary YES/NO): NO

Compound: NC(=O)CC1(c2cccc(Cl)c2)CCCC1 [CX]
- Exon 7 inclusion (summary YES/NO): NO
